# Data published in PubChem BioAssay AID2685 (National Center for Advancing Translational Sciences (NCATS), 2010).
# Hit rate of the full screen: of about 320,000 compounds, about 2,100 (0.66%) were called active. Inconclusive results, whose numbers are uncertain, are shown with a selection of clear calls. The call rests on the fitted dose curve; in most records, active means well fitted inhibition curve with a large enough effect in the signal ratio, with a control signal flat (not every such curve was filed as active); inconclusive means small, poorly fitted or top-dose-only effect, or effect the other way, or a change in a side signal; inactive means flat fitted curve, though single readings scatter; the % refers to the signal ratio. Where the call is inconclusive, the potency comes from a doubtful curve fit.
# Assay: qHTS Assay for Lipid Storage Modulators in Drosophila S3 Cells
# Conditions: BODIPY lipid droplet fluorescence, 18-24 h, cells fed with added oleic acid; lipid storage change, negative = inhibition: at 46.1 µM (top of the series) unless noted
# Summary of the method: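 Drosophila S3 cells loaded with oleic acid (400 uM, as added) and compounds at several concentrations; lipid droplets imaged by 488-nm laser-scanning cytometry, 500–530 nm intensity and object ratio to cell channel. Percent activity normalized to 20 uM Triacsin C.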
# On the % scale 0 is the no-effect control and ±100 the full control effect; potency means the concentration at half of the fitted maximal effect.
SMILES,"lipid storage change, negative = inhibition",Potency
CCC(C)NC(=O)[C@H]1N2C(=O)c3c(ccc(OC)c3OC)C2SC1(C)C (some centres undefined),inconclusive: 14%,
O=C(CCS(=O)(=O)c1ccc(Cl)cc1)Nc1nc(-c2ccncc2)cs1,inconclusive: -9.63%,
Cc1cc(NC(=O)CN2C(=O)NC3(CCCCC3C)C2=O)no1 (centres undefined),inconclusive: 79.4%,
Cc1cccc(NC(=O)C2CC(=O)n3ncnc3N2)c1 (centres undefined),inconclusive: -6.25%,
COc1cc(C2OC(=O)c3c2ccc(OC)c3OC)ccc1O (centres undefined),inconclusive: 4.13%,
O=C(CSc1nnc(COc2ccc(Cl)cc2)o1)N1CCCC1,,"inconclusive: 29.1 µM [activator, single point]"
Cc1ccc(NC(=O)CN(C)CC(=O)N(C)Cc2ccccc2)cc1,,"inconclusive: 20.6 µM [falling, single point]"
CCCn1nnnc1SCC(=O)Nc1ccc(F)cc1,inconclusive: -1.45%,
CCc1cc(C(=O)NCC2CCCO2)sc1C (centres undefined),inconclusive: 54.3%,
O=[N+]([O-])c1cccc(-c2csc(Nc3ccccc3)n2)c1,inconclusive: -25%,
Cc1cc(C)cc(NC(=O)c2cccn2-c2ncc(C(F)(F)F)cc2Cl)c1,,"inconclusive: 29.1 µM [falling, single point]"
C=CCSc1nc(C)c2cc(C)cc(C)c2n1,,"inconclusive: 5.17 µM [falling, single point]"
Clc1cc2nc3ccccn3c2cc1Cl,inconclusive: -3.44%,
CCCNC(=O)Cn1cnc2sc(C(=O)N3CCN(Cc4ccc5c(c4)OCO5)CC3)c(C)c2c1=O,inactive: 5.05%,
C=CCOc1ccc(/C=N/NC(=O)CN2CCCCC2)cc1OC,,"inconclusive: 10.3 µM [activator, partial curve]"
Cn1c(CCNC(=O)c2ccc(Cl)c(Cl)c2)nnc1SCc1ccc(Cl)c(Cl)c1,,"inconclusive: 29.1 µM [cytotoxic, single point]"
CCOC(=O)c1cncc(C#CCO)c1,inconclusive: 10%,
Cc1ccc(NC(=S)NCCc2c[nH]c3ccccc23)c(C)c1,inconclusive: 1.98%,
CC12CCC(C(=O)N(CSC(=S)N/N=C\c3ccccc3)C1=O)C2(C)C (centres undefined),,"inconclusive: 23.1 µM [falling, single point]"
CSCCC(NC(=O)c1ccco1)C(=O)NCC(c1ccccc1)N(C)C (centres undefined),,"inconclusive: 6.51 µM [activator, single point]"

SMILES,"lipid storage change, negative = inhibition",Potency
O=C(c1cnc2n(c1=O)CCS2)N1CCN(C(c2ccccc2)c2ccc(Cl)cc2)CC1 (centres undefined),,"inconclusive: 29.1 µM [falling, single point]"
CCOc1ccc(N(CC(=O)NC2CCCC2)C(=O)CCC(=O)Nc2nc(C)cs2)cc1,,"inconclusive: 23.1 µM [falling, single point]"
CCN(C(=O)CSc1nnc(-c2ccccc2)n1C)C1CCS(=O)(=O)C1 (centres undefined),inactive: 10.8%,
O=C(/C=C/c1cccs1)N1CCc2ccccc21,,"inconclusive: 0.326 µM [activator, full curve, poor fit]"
CCN(CC(=O)NC(C)C)C(=O)C(CCSC)NC(=O)c1cccc(C)c1 (centres undefined),,"inconclusive: 6.51 µM [falling, single point]"
c1ccc2c(Cn3ccnc3)c[nH]c2c1,inconclusive: -6.04%,
COc1cccc(CNC(=O)Cn2ccc3cc(S(=O)(=O)N4CCCC4)ccc32)c1OC,inconclusive: 9.35%,
COc1ccc2cc(C3CC(c4ccco4)=NN3C(=O)CCC(=O)O)c(Cl)nc2c1 (centres undefined),inconclusive: -6.7%,
CCCCC1(Br)C(=O)N(c2ccccc2)N(c2ccccc2)C1=O,inconclusive: -1.83%,
Cc1[nH]c2ccccc2c1C(=O)C(=O)N1CCN(c2cccc(Cl)c2)CC1,inconclusive: 46.7%,
COc1ccc(C(CCN(Cc2ccc(OC)c(OC)c2)C(C)=O)c2ccccc2)cc1 (centres undefined),inactive: -11.8%,
S=c1[nH]nc(Nc2ccccc2)s1,inconclusive: 68.1%,
Cc1cc(Br)ccc1OCC(=O)N(Cc1nc(-c2ccccc2)no1)C(C)C,inconclusive: 8.75%,
CCOC(=O)c1c(NC(=O)COc2ncnc3sccc23)sc2c1CCC2,inconclusive: 17.2%,
CC(=O)Nc1c2c(nn1-c1ccc(F)cc1)CSC2,,"inconclusive: 0.651 µM [activator, partial curve]"
Cc1cc(=O)[nH]c(SCC(=O)Nc2cc(S(=O)(=O)N(C)C)ccc2Cl)n1,inconclusive: -65.7%,
CCN(C(=O)CSc1nc2cc(C(F)(F)F)ccc2n1Cc1ccccc1)C1CCS(=O)(=O)C1 (centres undefined),,"inconclusive: 0.13 µM [falling, full curve, poor fit]"
Cc1nn(CCC(N)=O)c2nc(-c3cccs3)cc(C(F)(F)F)c12,,"inconclusive: 6.51 µM [activator, single point]"
Cc1ccc(-n2c(Cc3cccn3C)nnc2SCC(=O)N2CCN(c3ccccc3)CC2)cc1,inconclusive: 8.37%,

# Reformatted: two of the compounds above
SMILES | lipid storage change, negative = inhibition | Potency
CCCCC1(Br)C(=O)N(c2ccccc2)N(c2ccccc2)C1=O | inconclusive: -1.83% | 
Cc1[nH]c2ccccc2c1C(=O)C(=O)N1CCN(c2cccc(Cl)c2)CC1 | inconclusive: 46.7% | 
